No constants are given. Whether binding was seen depends on the method and setting. Some results given as binding are weak or reduced against the parent protein; the word gives no strength.
Legend:
[1] = target: purified FIM1-2 domains of C6 (human) (UniProt P13671); assay: ELISA on truncated C6 proteins and SPR
[2] = target: purified FIM1-2 domains of C6 (human) (UniProt P13671); assay: SPR (BIAcore T200), 1C9 amine-coupled to CM5, FIM1-2 0.975-500 nM
[3] = target: purified FIM1-2 domains of C6 (human) (UniProt P13671); assay: SPR (BIAcore T200), 1C9 amine-coupled to a CM5 chip, purified FIM1-2 injected
[4] = target: C6 no His (human) (UniProt P13671); assay: ELISA, wells coated with 'C6 no His', 1C9 detected with HRP goat anti-mouse IgG; duplicate wells
[5] = target: purified FIM1-2 domains of C6 (human) (UniProt P13671); assay: ELISA, wells coated with FIM1-2_His, 1C9 detected with HRP goat anti-mouse IgG; duplicate wells

The chains behind the UniProt entries cited, without tags or fusion partners. Where a name states a change or a piece, a line headed by the entry shows the natural chain unless it says otherwise. Residues count along the entry.
UniProt P13671: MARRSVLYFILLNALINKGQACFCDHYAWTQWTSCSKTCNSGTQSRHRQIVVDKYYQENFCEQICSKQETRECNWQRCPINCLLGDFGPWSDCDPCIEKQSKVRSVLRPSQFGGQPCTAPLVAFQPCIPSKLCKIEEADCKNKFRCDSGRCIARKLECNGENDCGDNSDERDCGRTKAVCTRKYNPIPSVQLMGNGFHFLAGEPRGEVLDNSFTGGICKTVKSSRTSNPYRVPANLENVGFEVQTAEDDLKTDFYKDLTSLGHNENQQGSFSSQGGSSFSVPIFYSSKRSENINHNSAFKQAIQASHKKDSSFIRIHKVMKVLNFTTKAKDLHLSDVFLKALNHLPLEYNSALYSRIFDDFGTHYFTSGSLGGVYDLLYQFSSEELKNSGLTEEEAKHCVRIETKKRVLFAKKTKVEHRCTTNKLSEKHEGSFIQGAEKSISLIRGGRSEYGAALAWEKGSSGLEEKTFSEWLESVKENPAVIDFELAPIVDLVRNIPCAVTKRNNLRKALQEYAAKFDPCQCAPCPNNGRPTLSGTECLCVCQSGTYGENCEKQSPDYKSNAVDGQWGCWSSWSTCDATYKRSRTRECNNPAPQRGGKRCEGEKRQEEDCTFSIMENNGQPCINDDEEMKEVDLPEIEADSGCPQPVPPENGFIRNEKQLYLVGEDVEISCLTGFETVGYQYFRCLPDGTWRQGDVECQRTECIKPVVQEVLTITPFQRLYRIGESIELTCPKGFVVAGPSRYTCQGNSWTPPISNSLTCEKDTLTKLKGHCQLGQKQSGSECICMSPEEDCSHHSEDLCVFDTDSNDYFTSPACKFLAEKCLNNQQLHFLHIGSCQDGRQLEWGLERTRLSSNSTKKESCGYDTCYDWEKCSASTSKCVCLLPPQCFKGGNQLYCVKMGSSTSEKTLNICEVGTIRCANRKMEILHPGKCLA
C6 no His: residues 22-934 of P13671
purified FIM1-2 domains of C6: residues 766-934 of P13671

- binding [1]: binds
- binding [2]: binds
- binding [3]: binds
- binding [4]: binds
- binding [5]: binds
B1: MoC601 MoG1K (mouse anti-C6 monoclonal antibody 1C9) (antibody, V domains shown)
VH: QVQLQQSGAELVKPGASVKISCKASGYAFSDYWMNWVKQRPGKGLEWIGQIYPGDDDTNYNGKFKGKATLTADKSSSTAYMQLSSLTSEDSAVYFCAREGYYGYTYVEYFDVWGTGTTVTVSS
VL: QIVLTQSPAIMSVSPGEKVTLTCSASSSVSYMHWYQQKSGTSPKRWIYDTSKLASGVPARFSGSGSGTSYSLTISSMEAEDAATYYCQQWTSNPLTFGAGTKLELR

From US20260125455A1
